# Measurements: article PMC5996148
# “And” between values parts separate entries of the source, which are not always exact repeats. Equal entries are not always repeated. The list shows a part of the results. For some of these results: Construct or isoform of the protein are uncertain.
# Columns and labels:
# Assay in all cases: protein microarray (ProtoArray v5.0), streptavidin-Alexa Fluor 647
# Settings in all cases: 3'-biotin; 20 mM Tris (pH 7.5), 5 mM MgCl2, 100 mM KCl, 0.1% Tween-20, A/T-rich and random oligonucleotide blockers; temperature not stated; high values mean tight binding
# [1] = tested on: AHSG (human)
# [2] = tested on: AIF1 (human)
# [3] = biological target: AK2 (UniProt P54819)
# [4] = tested on: AK3 (human)
# [5] = tested on: AK3L1 (human)
# [6] = tested on: AKR1B10 (human)
# [7] = tested on: AKR1C1 (human)
# [8] = tested on: AKR1C3 (human)
# [9] = biological target: AKT2 (UniProt P31751)
# [10] = tested on: ALAD (human)
sequence,measurement,setting,value
GGGAGGCTGAGGCAGG [G4-1 biotinylated (PQS2)],binding signal,[1],-0.349 z-score
same,binding signal,[2],-0.347 z-score and -0.354 z-score
same,binding signal,[3],-0.337 z-score
same,binding signal,[4],-0.339 z-score
same,binding signal,[5],-0.343 z-score
same,binding signal,[6],-0.337 z-score
same,binding signal,[7],-0.347 z-score
same,binding signal,[8],-0.291 z-score
same,binding signal,[9],-0.271 z-score
same,binding signal,[10],-0.311 z-score
